Results on five molecules are retold here after article PMC4808006.

The chains behind the UniProt entries cited, without tags or fusion partners.
UniProt Q13547: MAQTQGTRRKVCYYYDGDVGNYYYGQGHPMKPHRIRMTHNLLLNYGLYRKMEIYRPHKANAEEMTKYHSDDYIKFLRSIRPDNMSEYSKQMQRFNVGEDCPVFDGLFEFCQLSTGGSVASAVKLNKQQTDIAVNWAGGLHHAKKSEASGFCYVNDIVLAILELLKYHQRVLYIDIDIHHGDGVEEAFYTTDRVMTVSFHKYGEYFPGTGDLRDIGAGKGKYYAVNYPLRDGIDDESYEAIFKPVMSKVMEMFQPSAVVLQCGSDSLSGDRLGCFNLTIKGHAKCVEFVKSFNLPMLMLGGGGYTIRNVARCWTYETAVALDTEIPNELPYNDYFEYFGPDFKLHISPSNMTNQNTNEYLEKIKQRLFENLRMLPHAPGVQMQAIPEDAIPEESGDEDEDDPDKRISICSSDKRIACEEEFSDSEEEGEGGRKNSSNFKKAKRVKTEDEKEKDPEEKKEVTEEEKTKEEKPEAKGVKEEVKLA
UniProt O00560: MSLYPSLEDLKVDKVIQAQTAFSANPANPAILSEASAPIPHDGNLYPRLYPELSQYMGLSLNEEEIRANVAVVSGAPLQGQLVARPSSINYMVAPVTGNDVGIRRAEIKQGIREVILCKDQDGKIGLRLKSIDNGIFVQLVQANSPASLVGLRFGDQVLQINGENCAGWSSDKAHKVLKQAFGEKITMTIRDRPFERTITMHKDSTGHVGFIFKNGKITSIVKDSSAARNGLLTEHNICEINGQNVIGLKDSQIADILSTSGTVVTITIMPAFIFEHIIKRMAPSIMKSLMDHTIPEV

No constants are given. Whether binding was seen depends on the method and setting. For part of these data: Binding seen in cells or lysates may run through a third protein. Some results given as binding are weak or reduced against the parent protein; the word gives no strength. For part of these data: Where a sequence is shown, tags or fusion partners need not be part of it.

Experiment [1] deals with T1, Flag-tagged Slug (wild type) (UniProt O43623).
T1 sequence: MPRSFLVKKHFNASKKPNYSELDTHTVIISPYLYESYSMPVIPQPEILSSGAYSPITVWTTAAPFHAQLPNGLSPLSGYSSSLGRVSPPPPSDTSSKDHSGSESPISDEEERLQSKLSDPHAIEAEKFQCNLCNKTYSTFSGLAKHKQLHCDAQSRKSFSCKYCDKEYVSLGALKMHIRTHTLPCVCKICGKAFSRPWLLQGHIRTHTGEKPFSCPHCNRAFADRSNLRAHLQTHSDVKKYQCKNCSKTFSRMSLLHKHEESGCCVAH
The experiment in a line: co-IP; transient transfection of tagged plasmids in H1299 cells; lysates immunoprecipitated with anti-Flag antibodies, Western blotting. Background: Immunoblotting shows a protein as a band on a membrane.

For another experiment, the target named is HDAC1-Flag (UniProt Q13547). The experiment is described as above.
Experiment [2] addresses T2, HA-tagged Slug, in vitro translated (UniProt O43623).
T2 sequence: T1 sequence
Put plainly: native gel or EMSA; 32P-labeled E-box oligonucleotides incubated with in vitro translated HA-Slug and HA-Syntenin (3 or 6 μl), with or without antibodies (0.3 μg). On the technique in general: In EMSA bound probe runs differently from free probe, usually more slowly.

The target in experiment [3] is T3, Slug, endogenous in CL1-5 cells (human (endogenous in CL1-5)) (UniProt O43623).
T3 sequence: T1 sequence
The experiment in a line: co-IP; endogenous proteins in CL1-5 cells; immunoprecipitation and Western blot.

The target of experiment [4] is T4, Slug, two-hybrid bait in the pAS2 vector (UniProt O43623).
T4 sequence: T1 sequence
Put plainly: two-hybrid; pACT2-MDA-9/Syntenin (AD) with constructs in the pAS2 vector (BD); colonies grown on selection medium, β-gal assay.

The target of experiment [5] is Flag-tagged WT-Syntenin (human) (UniProt O00560). Put plainly: co-IP; transient transfection of tagged plasmids in H1299 cells; lysates immunoprecipitated with anti-Flag antibodies, Western blotting.

Regarding HA-Syntenin (from UniProt O00560 1-298), the binding result (in experiment [1]; in the experiment with HDAC1-Flag) was “binds” in each case.

Turning to “HA-Syntenin, in vitro translated (from UniProt O00560 1-298)”, the binding result in experiment [2] is reported as “binds”.

On to “MDA-9/Syntenin, endogenous in CL1-5 cells (from UniProt O00560 1-298)”, for which the binding entry in experiment [3] was “binds”.

As to “pACT2-MDA-9/Syntenin (from UniProt O00560 1-298)”, in experiment [4], the binding result is “binds”.

B1: HA-Slug (protein, UniProt O43623 1-268)
chain: T1 sequence
With B1, the binding entry in experiment [5] was “binds”.
